# PubChem BioAssay AID2685 (National Center for Advancing Translational Sciences (NCATS), 2010)
# This is one part of the list. Further columns of the screen follow, without active or inactive calls. Most of these compounds were active or inconclusive in the main read-out, so they are no random draw. Potencies come from curve fits of mixed quality, noted in brackets.
# Assay: qHTS Assay for Lipid Storage Modulators in Drosophila S3 Cells;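 on cell number change: cells counted by Cell Tracker Red CMTPX staining in the red channel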
# Conditions: BODIPY lipid droplet fluorescence, 18-24 h; for cell number change: measured here: cell count max response, cells fed with added oleic acid
# How it was run: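 Drosophila S3 cells loaded with oleic acid (400 uM, as added) and compounds at several concentrations; lipid droplets imaged by 488-nm laser-scanning cytometry, 500–530 nm intensity and object ratio to cell channel. Percent activity normalized to 20 uM Triacsin C.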
# [1] = measured here: lipid fluorescence (Fed channel) AC50, cells fed with added oleic acid
# [2] = measured here: cell number channel AC50, cells fed with added oleic acid
Compound,cell number change [%],AC50 [1],AC50 [2]
CC12CC[C@H]3[C@@H](CCC4(O)C[C@H](O)CCC34/C=N/NC(=O)c3ccccc3O)C1(O)CCC2C1=CC(=O)OC1 (stereo not given in full),-9.38,"0.651 µM [falling, full curve, poor fit]",–
OCC(Br)CBr (stereo not given),11.3,"0.731 µM [falling, single point]",–
COc1cc(C)cc2oc(=O)c(CC(=O)N3C[C@H]4C[C@@H](C3)c3cccc(=O)n3C4)c(C)c12,15.5,–,–
O=[N+]([O-])/C=C1\NCCN1Cc1ccc(Cl)nc1,1.52,"23.1 µM [falling, single point]",–
COC(=O)C1=C(c2ccc3ccccc3c2)C[C@@H]2CC[C@H]1N2C(=O)N1CCCC1,-47.9,"29.1 µM [falling, single point]","29.1 µM [falling, single point]"
CN1c2ccc([N+](=O)[O-])cc2CC2(C(=O)NC(=O)NC2=O)C1c1ccccc1 (stereo not given),-27.4,–,–
O=C1NC2NC(=O)N([N+](=O)[O-])C2N1 (stereo not given),-1.75,"0.58 µM [falling, single point]",–
CC(=NCCC1=CCCCC1)c1c(O)n(C)c(=O)n(C)c1=O,11,"3.26 µM [rising, full curve, poor fit]",–
O=[N+]([O-])c1ccc(N2CCNCC2)cc1N1CCCCCC1,18.2,–,–
CC[N+]1(C)CCCC(OC(=O)C(O)(c2ccccc2)c2ccccc2)C1 (stereo not given),-3.71,"0.116 µM [rising, full curve, poor fit]",–
COCCn1c(O)c(/C=N/NC(=O)CSC(=S)N2CCCC2)c(=O)[nH]c1=S,-8.77,"3.26 µM [rising, partial curve]",–
COC(=O)C1=C(c2ccc(F)cc2OCc2ccccc2)C[C@@H]2CC[C@H]1N2C(=O)NCc1ccc2[nH]ccc2c1,-43.6,"8.2 µM [falling, single point]","29.1 µM [falling, single point]"
C#CCN1CCN(c2ccc(F)cc2)CC1,3.69,"20.6 µM [falling, single point]",–
CN1CCN(c2cn[nH]c(=O)c2Cl)CC1,-9.02,–,–
COc1ccccc1-n1c(-c2ccccc2)nc2ccccc2c1=O,-3.56,–,–
CCN1CCN(CC(=O)c2c(C)n(Cc3ccccc3)c3ccc(OC)cc23)CC1,36.9,–,"2.06 µM [rising, full curve, poor fit]"
Cc1nc2ccc(N3CCN(C)CC3)cc2nc1C,–,–,"0.0058 µM [falling, full curve, poor fit]"
Oc1c(Br)cc(Br)cc1Oc1ccc(Br)cc1Br,-43.3,"25.9 µM [falling, single point]","3.66 µM [falling, partial curve]"
C=CCn1c(O)c(/C(C)=N/N2CCCCCC2)c(=O)[nH]c1=O,37.9,"20.6 µM [rising, single point]","20.6 µM [rising, single point]"
Cc1cc(C)n(CCOC(=O)C2C(C=C(Cl)Cl)C2(C)C)n1 (stereo not given),-19.6,"0.058 µM [rising, full curve, poor fit]",–

# 2 entries picked at random from those above, as already listed:
Compound,cell number change [%],AC50 [1],AC50 [2]
Oc1c(Br)cc(Br)cc1Oc1ccc(Br)cc1Br,-43.3,"25.9 µM [falling, single point]","3.66 µM [falling, partial curve]"
CN1CCN(c2cn[nH]c(=O)c2Cl)CC1,-9.02,–,–

# More structures:

Compound,cell number change [%],AC50 [1],AC50 [2]
Cc1ccc(C)c(CN2CCC(n3nnc4cc(F)ccc43)CC2)c1,-18.8,"2.06 µM [falling, full curve]",–
Cc1cccc(NC(=O)N2CCCC2)c1,7.32,"4.61 µM [falling, single point]","2.31 µM [falling, partial curve, poor fit]"
CCOS(C)(=O)=O,-20.3,"20.6 µM [rising, partial curve, poor fit]",–
COc1ccc(N=Cc2c(O)n(Cc3ccccc3)c(=S)[nH]c2=O)c(OC)c1,-5.19,–,–
Cc1cccc(N=Cc2c(O)n(-c3ccccc3C)c(=O)[nH]c2=O)c1,131,–,"18.4 µM [rising, single point]"
COc1cc(-c2ccc(N)c(OC)c2)ccc1N,6.14,"0.0731 µM [rising, full curve, poor fit]",–
CCCCn1c(N)c(C(=O)OCC2CCCO2)c2nc3ccccc3nc21 (stereo not given),-14.9,"0.0517 µM [rising, full curve, poor fit]",–
O=C(COc1ccc(Cl)cc1)N1CCN(C2CCCC2)CC1,-14.1,–,–
CCCCCCCCN=Cc1c(O)[nH]c(=O)[nH]c1=O,–,"1.16 µM [falling, full curve]","0.00651 µM [falling, full curve, poor fit]"
C1CCCN(C2CCNCC2)CC1,11.4,"29.1 µM [rising, single point]",–
COc1ccc(-n2c(O)c(/C(C)=N/N3CCCCCC3)c(=O)[nH]c2=O)cc1,14.7,"0.00461 µM [rising, full curve, poor fit]",–
CCc1c(C)nc(N)nc1N1N=C1SCC(=O)OC,16.3,"6.51 µM [falling, single point]",–
COc1ccc(C2SCC(=O)Nc3c2c(=O)[nH]n3C2CCCCC2)cc1 (stereo not given),-6.03,"6.51 µM [falling, single point]",–
CN1C2CCC1CC(OC(=O)c1ccc([N+](=O)[O-])cc1)C2 (stereo not given),–,"0.326 µM [falling, full curve]",–
CN1CCN(C(=O)Cc2nc3ccccc3[nH]2)CC1,3.16,"29.1 µM [falling, single point]",–
CCN1CCN(C(=O)Cc2c(C)n(C(=O)c3ccc(Cl)cc3)c3ccc(OC)cc23)CC1,49.7,"4.11 µM [rising, single point]",–
CC(=O)N1CCC2(CC1)CC(=O)c1cc(OCC(=O)N3CCN(C)CC3)ccc1O2,42.3,"29.1 µM [rising, partial curve]",–
Nc1ccc(C2(c3ccc(N)cc3)CCCCC2)cc1,84.3,–,"18.4 µM [rising, single point]"
COC(=O)C1=C(c2c(C)noc2C)C[C@@H]2CC[C@H]1N2C(=O)NCc1ccco1,-16.2,"1.84 µM [falling, partial curve]",–
O=C(Nc1ccccc1Cl)Oc1ccc(Cl)cc1Cl,–,–,"20.6 µM [falling, single point]"
